Experimental data from US20190160152A1 (OPKO BIOLOGICS LTD., priority 2016, published 2019).

Test: peptide made by a vendor (Fmoc solid-phase peptide synthesis)
Conditions: whole synthesis, scale 200 mg resin

HSQGTFTSDYSKYLDSRRAQDFVQWLMNTKRNRNNIA
crude purity (method not given): 36% pure

Where a sequence shows no end group, the ends are not given.
